# Laboratory results taken from PubChem BioAssay (EPA / NIEHS).
# By UniProt entry, the sequences of proteins in these tests, tags left out. Where a name states a change or a piece, a line headed by the entry shows the natural chain unless it says otherwise.
# UniProt P04637, whole entry, looked up: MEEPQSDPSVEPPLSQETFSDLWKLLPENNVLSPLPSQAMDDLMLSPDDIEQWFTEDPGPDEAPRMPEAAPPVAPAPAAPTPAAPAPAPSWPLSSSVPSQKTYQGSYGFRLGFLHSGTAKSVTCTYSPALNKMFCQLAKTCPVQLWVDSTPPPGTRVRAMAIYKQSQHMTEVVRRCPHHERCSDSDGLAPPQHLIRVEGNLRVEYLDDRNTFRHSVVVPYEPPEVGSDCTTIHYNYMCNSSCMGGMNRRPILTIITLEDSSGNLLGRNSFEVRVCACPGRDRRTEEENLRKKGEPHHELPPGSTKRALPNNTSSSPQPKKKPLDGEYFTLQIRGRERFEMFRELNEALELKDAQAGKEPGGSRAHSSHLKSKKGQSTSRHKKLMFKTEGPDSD
# UniProt P10828: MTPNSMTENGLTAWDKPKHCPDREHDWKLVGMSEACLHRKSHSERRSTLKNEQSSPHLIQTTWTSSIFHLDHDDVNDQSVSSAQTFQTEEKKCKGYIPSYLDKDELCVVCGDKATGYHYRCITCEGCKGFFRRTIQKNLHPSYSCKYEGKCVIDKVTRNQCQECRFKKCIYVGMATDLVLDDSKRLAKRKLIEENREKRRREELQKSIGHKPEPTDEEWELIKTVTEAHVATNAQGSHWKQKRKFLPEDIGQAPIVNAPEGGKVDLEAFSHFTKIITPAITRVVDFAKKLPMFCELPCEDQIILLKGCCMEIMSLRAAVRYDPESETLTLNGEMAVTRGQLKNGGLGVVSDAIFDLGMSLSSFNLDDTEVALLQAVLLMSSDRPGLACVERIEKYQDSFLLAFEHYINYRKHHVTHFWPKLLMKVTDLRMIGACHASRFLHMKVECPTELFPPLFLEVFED
# UniProt P19793: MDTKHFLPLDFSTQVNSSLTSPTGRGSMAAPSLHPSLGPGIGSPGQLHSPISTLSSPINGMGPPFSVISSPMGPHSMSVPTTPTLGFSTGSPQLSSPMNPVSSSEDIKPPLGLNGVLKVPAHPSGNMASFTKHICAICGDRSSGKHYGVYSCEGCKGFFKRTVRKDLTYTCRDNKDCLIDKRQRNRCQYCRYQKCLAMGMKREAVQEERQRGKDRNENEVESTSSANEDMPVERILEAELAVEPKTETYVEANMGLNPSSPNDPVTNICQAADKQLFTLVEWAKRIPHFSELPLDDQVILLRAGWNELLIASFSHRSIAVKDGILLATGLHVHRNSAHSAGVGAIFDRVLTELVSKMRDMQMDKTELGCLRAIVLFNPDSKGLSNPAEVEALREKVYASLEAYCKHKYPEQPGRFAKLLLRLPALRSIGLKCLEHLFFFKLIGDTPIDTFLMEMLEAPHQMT
# Inconclusive results, whose numbers are uncertain, are shown with a selection of clear calls. For part of these data: Potencies beside an inconclusive call are fits to weak or partial responses and may not hold up. Active and inactive are the calls of the source. The calls were made as follows: active = hit-call score of the fitted dose curve at least 0.9, where 1 is the maximum; inconclusive = response in the unintended direction; inactive = score below 0.9.
# How the values were obtained:
# [1] = TOX21_p53_BLA_p4_viability: Viability Assessment in the Tox21 HCT-116 p53 Agonism Beta-lactamase Assay, Phase 4 (AID 2283597);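 also: hits lower the luminescence signal meaning cytotoxicity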
# Summary of the method: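 HCT-116 p53-bla cells, 4000/well, dosed after 5 h attachment and incubated 16 h at 37 °C, 5% CO2. Viability from CellTiter-Glo ATP luminescence after 30 min at room temperature, taken after the beta-lactamase read; loss of signal indicates cytotoxicity.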
# [2] = target: Cellular tumor antigen p53 (Homo sapiens) (UniProt P04637); experiment: TOX21_p53_BLA_p5_ratio: Tox21 HCT-116 p53 Agonism Beta-lactamase Assay, Ratio, Phase 5 (AID 2283599)
# Summary of the method: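 HCT-116 cells carrying a p53-inducible beta-lactamase reporter were seeded at 4000 cells/well and dosed after 5 h with compound in DMSO (217-fold dilution). After 16 h at 37C, CCF4-AM substrate was added for 2 h, and the 460/530 nm emission ratio was scored as gain-of-signal versus DMSO.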
# [3] = TOX21_p53_BLA_p5_viability: Viability Assessment in the Tox21 HCT-116 p53 Agonism Beta-lactamase Assay, Phase 5 (AID 2283600)
# Summary of the method: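 HCT-116 p53 beta-lactamase reporter cells, 4000/well, were exposed to compound (pin transfer, 217-fold dilution) for 16 hours at 37C. Cellular ATP was read by CellTiter-Glo luminescence after 30 min at room temperature.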
# [4] = target: Cellular tumor antigen p53 (Homo sapiens) (UniProt P04637); experiment: TOX21_p53_BLA_p3_ratio: Tox21 HCT-116 p53 Agonism Beta-lactamase Assay, Ratio, Phase 3 (AID 2283596)
# Summary of the method: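 HCT116 p53-bla cells (4000/well) given compound in DMSO (217-fold dilution) after 5 h, incubated 16 h at 37C. CCF4-AM substrate 2 h at room temperature; 460/530 nm emission ratio, gain fitted against DMSO.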
# THRB (gene 7068) [5] = target: THRB (gene 7068) (UniProt P10828); experiment: TOX21_TRB_BLA_Antagonist_Followup_ratio: Tox21 Thyroid Hormone Receptor beta Antagonism Beta-lactamase (BLA) Follow-Up Assay, Ratio (AID 2283958)
# Summary of the method: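 GAL4-DBD/human TRβ-LBD fusion in GeneBLAzer UAS-bla HEK293T cells, 3,000 cells/well in phenol red-free DMEM with 2% charcoal-stripped FBS; compounds at 11 concentrations in triplicate, 18 h at 37C. CCF4-AM substrate 2 h, 460:530 nm ratio relative to DMSO.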
# [6] = TOX21_TRB_BLA_Antagonist_Followup_viability: Viability Assessment in the Tox21 Thyroid Hormone Receptor beta Antagonism Beta-lactamase (BLA) Follow-Up Assay (AID 2283961)
# Summary of the method: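 HEK293T cells with GAL4-human TRβ LBD and UAS-bla reporter, 3,000 cells/well in 2% charcoal-stripped FBS medium; 11-point concentrations in triplicate, 18 h at 37C. Viability from ATP by CellTiter-Glo luminescence, 30 min RT, same plates.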
# THRB (gene 7068) [7] = target: THRB (gene 7068) (UniProt P10828); experiment: TOX21_TRB_COA_Antagonist_Followup_ratio: Tox21 Thyroid Hormone Receptor beta Antagonism through Coactivator Recruitment Follow-Up Assay, Ratio (AID 2283967)
# Summary of the method: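 Cell-free TR-FRET coactivator recruitment with GST-tagged TRβ LBD (5.0 nM) and fluorescein-labeled SRC-2 peptide (200 nM) detected by terbium anti-GST antibody (2 nM). The 520:495 nm emission ratio was normalized to DMSO (0%) and T3 (100%).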
# [8] = target: Retinoic acid receptor RXR-alpha (Homo sapiens) (UniProt P19793); experiment: TOX21_TR_RXR_BLA_Antagonist_Followup_ratio: Tox21 Thyroid Hormone Receptor beta Retinoid X Receptor alpha (RXRa) Antagonism Beta-lactamase (BLA) Follow-Up Assay, Ratio (AID 2283972)
# Summary of the method: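 RXRa-UAS-bla HEK293T cells, 2,500/well in phenol red-free DMEM with 2% charcoal-stripped FBS, 5 h attachment, then compounds (11 concentrations, triplicate) for 16 h at 37C; FRET-B/GCCF4-AM substrate 2 h RT; 460:530 nm ratio, loss of signal vs DMSO.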
# [9] = target: Cellular tumor antigen p53 (Homo sapiens) (UniProt P04637); experiment: TOX21_p53_BLA_p4_ratio: Tox21 HCT-116 p53 Agonism Beta-lactamase Assay, Ratio, Phase 4 (AID 2283601)
# Summary of the method: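 HCT116 cells carrying an inducible beta-lactamase reporter were plated at 4000 cells/well, rested 5 h, then exposed to compounds in DMSO (217-fold dilution) for 16 h at 37C. CCF4-AM substrate was loaded 2 h at room temperature; 460/530 nm emission ratio scored gain-of-signal versus DMSO.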
compound,measurement,setting,value
CCCCCCCCCCCCCCCCCC(=O)[O][Al],AC50,[1],inconclusive: 23 µM
CCCCC[C@H](O)/C=C/[C@H]1[C@H](O)CC(=O)[C@@H]1C/C=C\CCCC(=O)O,AC50,[1],inconclusive: 7.83 µM
same,AC50,[2],inconclusive: 23 µM
CCCC(CCC)C(N)=O,AC50,[1],inconclusive: 23 µM
same,AC50,[2],inconclusive: 43.4 µM
same,AC50,[3],inconclusive: 23 µM
CCCCCCCCSCC,AC50,[1],inconclusive: 0.00011 µM
same,outcome,[2],inactive
CCCCCCCCS(=O)(=O)Cl,outcome,[1],inactive
same,AC50,[2],inconclusive: 46.5 µM
same,outcome,[3],inactive
NC(=O)c1ncn([C@@H]2O[C@H](CO)[C@@H](O)[C@H]2O)c1N,AC50,[1],inconclusive: 39.7 µM
same,AC50,[2],inconclusive: 39.3 µM
C(=C/c1ccccc1)/c1ccccc1,AC50,[1],inconclusive: 3.66 µM
same,AC50,[2],inconclusive: 89.4 µM
Oc1cccc2cc3cccc(O)c3c(O)c12,outcome,[1],inactive
O=C(CO)[C@@H](O)[C@H](O)[C@@H](O)C(=O)O,outcome,[1],inactive
same,outcome,[2],inactive
CCN(CC)CCOC(=O)c1cccnc1,AC50,[1],inconclusive: 23 µM
NCCc1cnc[nH]1,AC50,[1],inconclusive: 23 µM
CC(=O)N(O)CCCCCNC(=O)CCC(=O)N(O)CCCCCNC(=O)CCC(=O)N(O)CCCCCN,AC50,[1],inconclusive: 10.3 µM
same,AC50,[2],inconclusive: 10.3 µM
same,AC50,[3],inconclusive: 10.3 µM
CC(=O)[C@H]1CC[C@H]2[C@@H]3C=CC4=CC(=O)CC[C@@]4(C)[C@@H]3CC[C@]12C,AC50,[4],inconclusive: 10.3 µM
same,outcome,[3],inactive
same,AC50,THRB (gene 7068) [5],inconclusive: 12.3 µM
same,AC50,[6],inconclusive: 12.3 µM
same,outcome,THRB (gene 7068) [7],inactive
same,AC50,[8],inconclusive: 12.3 µM
CN(C)CCc1c[nH]c2ccc(CS(=O)(=O)N3CCCC3)cc12,outcome,[1],inactive
same,AC50,[2],inconclusive: 23 µM
same,AC50,[3],inconclusive: 17.3 µM
COC(=O)[C@H]1[C@H]2C[C@@H]3c4[nH]c5cc(OC)ccc5c4CCN3C[C@H]2C[C@@H](OC(=O)/C=C/c2cc(OC)c(OC)c(OC)c2)[C@@H]1OC,outcome,[1],inactive
CCCCCC1Nc2cc(C(F)(F)F)c(S(N)(=O)=O)cc2S(=O)(=O)N1 (stereo not drawn),AC50,[4],inconclusive: 23 µM
same,AC50,[9],inconclusive: 23 µM
C=C(C)C(=O)OCCN(CC)CC,AC50,[4],inconclusive: 45.9 µM
same,AC50,[3],inconclusive: 45.9 µM
same,AC50,[9],inconclusive: 45.9 µM
Nc1cccc(S(=O)(=O)O)c1,AC50,[4],inconclusive: 46.2 µM
same,outcome,[9],inactive
Cc1ncc([N+](=O)[O-])n1CC(C)O (stereo not drawn),AC50,[1],inconclusive: 23 µM
CC1(C)S[C@@H]2[C@H](NC(=O)[C@H](N)c3ccccc3)C(=O)N2[C@H]1C(=O)OCOC(=O)[C@@H]1N2C(=O)C[C@H]2S(=O)(=O)C1(C)C,outcome,[1],inactive
same,AC50,[2],inconclusive: 0.632 µM
same,outcome,[3],inactive
N=C(N)n1cccn1,AC50,[1],inconclusive: 23 µM
CC1=C(C(=O)O)N2C(=O)[C@@H](NC(=O)[C@H](N)c3ccc(O)cc3)[C@H]2SC1,AC50,[1],inconclusive: 10.3 µM
Cc1c(C(=O)O)cccc1[N+](=O)[O-],outcome,[1],inactive
same,outcome,[2],inactive
same,outcome,[3],inactive
COC1[C@@H](O[C@@H]2O[C@H](C)[C@@H](O[C@H]3C[C@@](C)(O)[C@H](OC(=O)CC(C)C)[C@H](C)O3)[C@H](N(C)C)[C@H]2O)[C@@H](CC=O)C[C@@H](C)[C@@H](O)/C=C/C=C/C[C@@H](C)OC(=O)C[C@H]1OC(C)=O (stereo partly drawn),outcome,[1],inactive
same,AC50,[2],inconclusive: 10.3 µM
same,AC50,[3],inconclusive: 10.3 µM
same,AC50,[9],inconclusive: 10.3 µM
CC(O)[C@@H]1NC(=O)[C@H](Cc2ccccc2)NC(=O)[C@H](C(C)O)NC(=O)[C@H](CCCCN)NC(=O)[C@H](Cc2c[nH]c3ccccc23)NC(=O)[C@H](Cc2ccccc2)NC(=O)[C@H](Cc2ccccc2)NC(=O)[C@H](CC(N)=O)NC(=O)[C@H](CCCCN)NC(=O)[C@@H](NC(=O)CNC(=O)[C@H](C)N)CSSC[C@@H](C(=O)O)NC(=O)[C@H](CO)NC1=O (stereo partly drawn),AC50,[1],inconclusive: 43 µM
same,AC50,[2],inconclusive: 39.6 µM
C=CCCC,AC50,[4],inconclusive: 84 µM
same,outcome,[3],inactive
same,AC50,[9],inconclusive: 46.8 µM
CC[N+]1(CC)CCC(=C(c2ccccc2)c2ccccc2)C1C (stereo not drawn),AC50,[4],inconclusive: 13.2 µM
same,AC50,[9],inconclusive: 43.3 µM
CCC1C(=O)OCC1Cc1cncn1C (stereo not drawn),AC50,[1],inconclusive: 23 µM
same,AC50,[2],inconclusive: 6.85e-05 µM
CC1CN(c2ccccc2)NC1=O (stereo not drawn),AC50,[1],inconclusive: 46.1 µM

# A portion from the list above, as a working copy:
compound,measurement,setting,value
C=C(C)C(=O)OCCN(CC)CC,AC50,[3],inconclusive: 45.9 µM
same,AC50,[9],inconclusive: 45.9 µM
Nc1cccc(S(=O)(=O)O)c1,AC50,[4],inconclusive: 46.2 µM
